Experiment [1] has as its target claudin-10b wildtype (human) (UniProt P78369). As to the kind of experiment: contact enrichment assay (live cell imaging); fluorescence at contacts of two claudin-expressing HEK293 cells against their contacts with non-expressing cells; enrichment factor >1 counted positive; read as trans interaction; HEPES-buffered bath solution pH 7.4, 37 °C.
Experiment [2] has the same target. Nature of the experiment: FRET or BRET; acceptor-photobleaching FRET in live HEK293 cells co-transfected with EYFP- and ECFP-tagged claudin-10b; read as cis interaction; HEPES-buffered bath solution pH 7.4, 37 °C. (In BRET a luciferase serves as donor, and the signal depends on an acceptor being close.)

No constants are given. Whether binding was seen depends on the method and setting. For some assays here: Binding seen in cells or lysates may run through a third protein. Some binding calls cover weakened binding; strength is not graded here.

B1: claudin-10b wildtype (protein, UniProt P78369-1 1-228)
chain: MASTASEIIAFMVSISGWVLVSSTLPTDYWKVSTIDGTVITTATYWANLWKACVTDSTGVSNCKDFPSMLALDGYIQACRGLMIAAVSLGFFGSIFALFGMKCTKVGGSDKAKAKIACLAGIVFILSGLCSMTGCSLYANKITTEFFDPLFVEQKYELGAALFIGWAGASLCIIGGVIFCFSISDNNKTPRYTYNGATSVMSSRTKYHGGEDFKTTNPSKQFDKNAYV
B1: the binding result in experiment [1] and in experiment [2] was “binds” in each case.

Source of the values: article PMC9995463.
